For two substances, binding results are on record in doi:10.1101/359943.

Sequences of proteins named here, by UniProt entry; tags and fusion partners are left off.
UniProt A0ACD7PUJ9: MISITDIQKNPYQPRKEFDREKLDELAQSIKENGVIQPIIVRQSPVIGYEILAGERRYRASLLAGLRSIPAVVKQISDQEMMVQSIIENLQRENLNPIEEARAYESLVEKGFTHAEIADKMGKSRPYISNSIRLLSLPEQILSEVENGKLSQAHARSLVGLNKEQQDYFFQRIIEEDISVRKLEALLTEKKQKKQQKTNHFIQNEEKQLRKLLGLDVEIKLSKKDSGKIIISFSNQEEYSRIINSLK

For experiment [1], the target named is RocS in S. pneumoniae cells (tagged fusion for co-immunoprecipitation) (Streptococcus pneumoniae) (UniProt Q8DQ15). Put plainly: co-IP.
Experiment [2] concerns the target T1, RocS-ΔAH-6His (Streptococcus pneumoniae) (UniProt Q8DQ15).
T1 sequence (chain, labeled with the red dye NT-647): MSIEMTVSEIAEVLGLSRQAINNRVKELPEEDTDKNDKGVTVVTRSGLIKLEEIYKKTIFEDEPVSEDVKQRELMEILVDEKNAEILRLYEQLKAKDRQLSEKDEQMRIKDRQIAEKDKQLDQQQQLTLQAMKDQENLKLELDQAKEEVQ
Put plainly: MST.

Results are given in words; binding and its absence hold for the method and conditions named. For some assays here: In cells and extracts the contact can be indirect. Some entries that bind do so weakly or less than the wild type. For some assays here: Tags and fused reporters may be left off the sequences shown.

Turning to “ParB in S. pneumoniae cells (tagged fusion for co-immunoprecipitation) (from UniProt A0ACD7PUJ9 1-247)”, the binding result in experiment [1] is given as “binds”.
For the substance “ParB-6His (from UniProt A0ACD7PUJ9 1-247)”, the binding result in experiment [2] was “binds”.
